Data reported in PubChem BioAssay AID2685 (National Center for Advancing Translational Sciences (NCATS), 2010).
Some of the results follow. These are further read-outs of the screen, such as a control signal, another cell line or another target. No call is given for them. Compounds called inactive in the main read-out are mostly missing here. The note in brackets gives the kind of curve behind each potency; many fits are weak.

Assay: qHTS Assay for Lipid Storage Modulators in Drosophila S3 Cells;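 for cell number change: cells counted by Cell Tracker Red CMTPX staining in the red channel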
Settings: BODIPY lipid droplet fluorescence, 18-24 h; for cell number change: measured here: cell count max response, cells fed with added oleic acid
How it was run: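 Drosophila S3 cells loaded with oleic acid (400 uM, as added) and compounds at several concentrations; lipid droplets imaged by 488-nm laser-scanning cytometry, 500–530 nm intensity and object ratio to cell channel. Percent activity normalized to 20 uM Triacsin C.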

[1] = measured here: lipid fluorescence (Fed channel) AC50, cells fed with added oleic acid
[2] = measured here: cell number channel AC50, cells fed with added oleic acid

| Compound | cell number change [%] | AC50 [1] | AC50 [2] |
| --- | --- | --- | --- |
| C/C(N)=C(/C#N)C(=O)COC(=O)CC12CC3CC(CC(C3)C1)C2 | -5.01 | 0.0058 µM [falling, full curve, poor fit] | – |
| COc1ccc(C(=O)CSc2nnc(COc3ccc(C#N)cc3)n2-c2ccccc2)cc1 | 36.5 | – | 16.4 µM [rising, single point] |
| CCN(CC)c1nc(Oc2ccc(C(=O)OC)cc2)nc(N2CCOCC2)n1 | 13.2 | 6.51 µM [falling, single point] | 6.51 µM [falling, single point] |
| CC(=O)c1c(C)[nH]c(C(=O)OC2CCCCC2=O)c1C (centres undefined) | – | 5.17 µM [falling, single point] | – |
| O=C(CN1CCN(S(=O)(=O)c2ccc(F)cc2)CC1)NC1CCCC1 | 29.3 | 8.2 µM [rising, partial curve, poor fit] | – |
| CCN(CC)S(=O)(=O)c1ccc(C)c(NC(=O)COc2ccc(Br)cc2Cl)c1 | -35.2 | 2.91 µM [falling, full curve] | 2.91 µM [falling, full curve] |
| O=C(CSc1nnc2ccc(-c3ccccn3)nn12)NCC1CCCO1 (centres undefined) | -6.28 | 0.116 µM [falling, single point] | – |
| CC1=CCC[C@@H]2[C@@](C)(CC/C(C)=C/C(=O)O)[C@H](C)CC[C@@]12C | -39.5 | 32.6 µM [falling, partial curve] | 29.1 µM [falling, single point] |
| O=C(Nc1ccccc1O)c1ccc2c(c1)C(=O)N(N1C(=O)c3ccccc3C1=O)C2=O | -1.94 | 0.82 µM [falling, full curve, poor fit] | – |
| O=C(CN1CCN(S(=O)(=O)c2ccc3ccccc3c2)CC1)Nc1ccc2c(c1)CCC2 | 2.1 | – | 0.731 µM [falling, single point] |
| Cc1csc(SCC(=O)Nc2ccc3c(c2)OCCO3)n1 | – | 0.00461 µM [falling, full curve, poor fit] | 0.00461 µM [falling, full curve] |
| CC1=C(C(=O)Nc2ccccc2C)C(c2cccnc2)n2nc(CCCO)nc2N1 (centres undefined) | 5.69 | 0.0517 µM [falling, full curve, poor fit] | – |
| O=C(COC(=O)C1CC2C=CC1C2)NCc1ccc(F)cc1 (centres undefined) | 13.8 | 0.58 µM [falling, full curve, poor fit] | – |
| CC(CN1CCCCC1)NC(=O)c1cc(-c2ccccn2)nc2ccc(Cl)cc12 (centres undefined) | 3.38 | 0.146 µM [falling, full curve, poor fit] | – |
| CCOC(=O)c1sc2nc(N3CCOCC3)c3c(c2c1N)CCCC3 | -16.1 | – | – |
| N#CCC(=O)N/N=C/c1cc([N+](=O)[O-])ccc1N1CCOCC1 | 45.8 | – | – |
| NNc1nc2c(Cl)ccc(Cl)c2s1 | -16.7 | – | – |
| Cc1ccc(N(CC(O)CN2CCCCC2)S(=O)(=O)c2ccc(C)cc2)cc1 (centres undefined) | 1.32 | 3.55 µM [rising, single point] | – |
| CC(C)CN1CCN=C1N(C)C | -6.89 | 29.1 µM [rising, single point] | – |
| Cc1cc(C(=O)NN)c2cc(Br)ccc2n1 | – | – | 0.731 µM [rising, partial curve] |
| Cc1c(NC(=O)CCCCCN2C(=O)c3ccccc3C2=O)c(=O)n(-c2ccccc2)n1C | -1.02 | 7.31 µM [rising, partial curve, poor fit] | – |
| Cc1nnc(NCCO)c2ccccc12 | 35 | 20.6 µM [rising, partial curve] | 14.6 µM [rising, single point] |
| O=C(COC(=O)/C=C/c1ccccc1Cl)NCCNC(=O)COC(=O)/C=C/c1ccccc1Cl | 115 | 11.6 µM [falling, single point] | 16.4 µM [rising, single point] |
| CC(=O)c1cccc(CN(C)CC2CCCN(CCc3ccccc3C)C2)c1 (centres undefined) | -3.8 | 3.66 µM [rising, single point] | – |
| Cc1ccc(S(=O)(=O)N2CCN(Cc3cc(=O)n4ccccc4n3)CC2)c(C)c1 | -17.7 | 0.116 µM [falling, full curve] | – |
| O=C(CSc1nnc(-c2ccccc2Br)o1)Nc1cccc2ccccc12 | 96 | 0.731 µM [rising, single point] | – |
| O=C(NCc1cccs1)C(=O)NCC1OCCCN1S(=O)(=O)c1cccs1 (centres undefined) | -17.4 | – | – |
| CCc1ccc(S(=O)(=O)ON2C(=O)c3ccccc3C2=O)cc1 | -22 | 0.794 µM [falling, single point] | – |
| Cc1cc([N+](=O)[O-])c2c(c1C)C1C=CCC1C(c1ccccn1)N2 (centres undefined) | -1.49 | – | – |
| O=c1[nH]cnc2c1ncn2Cc1ccc([N+](=O)[O-])cc1 | -49.9 | 14.6 µM [falling, partial curve] | 18.4 µM [falling, partial curve] |

3 compounds out of the list, arranged by formula weight, largest number first:

| Compound | cell number change [%] | AC50 [1] | AC50 [2] |
| --- | --- | --- | --- |
| Cc1c(NC(=O)CCCCCN2C(=O)c3ccccc3C2=O)c(=O)n(-c2ccccc2)n1C | -1.02 | 7.31 µM [rising, partial curve, poor fit] | – |
| N#CCC(=O)N/N=C/c1cc([N+](=O)[O-])ccc1N1CCOCC1 | 45.8 | – | – |
| CC(=O)c1c(C)[nH]c(C(=O)OC2CCCCC2=O)c1C (centres undefined) | – | 5.17 µM [falling, single point] | – |
